Results are given in words; binding and its absence hold for the method and conditions named. Binding seen in cells or lysates may run through a third protein. A result given as binding can be weak or reduced; the word gives no strength. Sequences can lack the tags named with a protein.
T1: GFP-LUZP1 (human) (UniProt Q86V48)
T1 sequence: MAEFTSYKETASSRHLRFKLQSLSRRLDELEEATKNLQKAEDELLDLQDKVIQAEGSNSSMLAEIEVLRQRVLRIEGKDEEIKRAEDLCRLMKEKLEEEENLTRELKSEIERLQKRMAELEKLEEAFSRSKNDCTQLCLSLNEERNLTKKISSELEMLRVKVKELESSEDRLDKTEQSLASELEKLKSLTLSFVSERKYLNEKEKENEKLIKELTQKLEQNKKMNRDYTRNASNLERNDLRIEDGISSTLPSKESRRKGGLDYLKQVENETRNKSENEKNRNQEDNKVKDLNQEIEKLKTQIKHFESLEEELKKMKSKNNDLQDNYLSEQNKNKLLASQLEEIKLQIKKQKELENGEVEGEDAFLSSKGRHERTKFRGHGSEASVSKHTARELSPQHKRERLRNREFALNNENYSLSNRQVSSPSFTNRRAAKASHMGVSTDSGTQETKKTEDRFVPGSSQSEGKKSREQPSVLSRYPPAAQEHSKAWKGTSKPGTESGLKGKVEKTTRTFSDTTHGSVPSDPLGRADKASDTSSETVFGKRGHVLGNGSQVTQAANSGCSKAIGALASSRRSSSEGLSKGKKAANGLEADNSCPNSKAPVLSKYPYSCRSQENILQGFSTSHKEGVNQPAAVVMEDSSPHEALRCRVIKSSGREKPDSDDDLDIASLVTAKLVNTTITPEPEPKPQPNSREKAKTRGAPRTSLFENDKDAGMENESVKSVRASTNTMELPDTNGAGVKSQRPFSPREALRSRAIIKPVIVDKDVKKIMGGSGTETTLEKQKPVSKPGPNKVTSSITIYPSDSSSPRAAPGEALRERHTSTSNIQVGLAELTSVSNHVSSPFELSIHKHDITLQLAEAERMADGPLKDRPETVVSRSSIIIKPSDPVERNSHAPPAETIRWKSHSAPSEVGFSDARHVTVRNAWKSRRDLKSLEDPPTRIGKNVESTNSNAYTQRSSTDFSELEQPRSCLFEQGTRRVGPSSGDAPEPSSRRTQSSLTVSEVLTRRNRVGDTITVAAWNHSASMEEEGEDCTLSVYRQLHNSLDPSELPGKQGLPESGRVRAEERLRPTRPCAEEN

B1: FLAG-LUZP1 (full length) (protein, UniProt Q86V48-1 1-1076)
chain: T1 sequence
B2: FLAG-LUZP1 (aa 297–1,076) (domain or fragment, UniProt Q86V48-1 297-1076)
chain: KLKTQIKHFESLEEELKKMKSKNNDLQDNYLSEQNKNKLLASQLEEIKLQIKKQKELENGEVEGEDAFLSSKGRHERTKFRGHGSEASVSKHTARELSPQHKRERLRNREFALNNENYSLSNRQVSSPSFTNRRAAKASHMGVSTDSGTQETKKTEDRFVPGSSQSEGKKSREQPSVLSRYPPAAQEHSKAWKGTSKPGTESGLKGKVEKTTRTFSDTTHGSVPSDPLGRADKASDTSSETVFGKRGHVLGNGSQVTQAANSGCSKAIGALASSRRSSSEGLSKGKKAANGLEADNSCPNSKAPVLSKYPYSCRSQENILQGFSTSHKEGVNQPAAVVMEDSSPHEALRCRVIKSSGREKPDSDDDLDIASLVTAKLVNTTITPEPEPKPQPNSREKAKTRGAPRTSLFENDKDAGMENESVKSVRASTNTMELPDTNGAGVKSQRPFSPREALRSRAIIKPVIVDKDVKKIMGGSGTETTLEKQKPVSKPGPNKVTSSITIYPSDSSSPRAAPGEALRERHTSTSNIQVGLAELTSVSNHVSSPFELSIHKHDITLQLAEAERMADGPLKDRPETVVSRSSIIIKPSDPVERNSHAPPAETIRWKSHSAPSEVGFSDARHVTVRNAWKSRRDLKSLEDPPTRIGKNVESTNSNAYTQRSSTDFSELEQPRSCLFEQGTRRVGPSSGDAPEPSSRRTQSSLTVSEVLTRRNRVGDTITVAAWNHSASMEEEGEDCTLSVYRQLHNSLDPSELPGKQGLPESGRVRAEERLRPTRPCAEEN
B3: FLAG-LUZP1 (aa 1–296) (domain or fragment, UniProt Q86V48-1 1-296)
chain: MAEFTSYKETASSRHLRFKLQSLSRRLDELEEATKNLQKAEDELLDLQDKVIQAEGSNSSMLAEIEVLRQRVLRIEGKDEEIKRAEDLCRLMKEKLEEEENLTRELKSEIERLQKRMAELEKLEEAFSRSKNDCTQLCLSLNEERNLTKKISSELEMLRVKVKELESSEDRLDKTEQSLASELEKLKSLTLSFVSERKYLNEKEKENEKLIKELTQKLEQNKKMNRDYTRNASNLERNDLRIEDGISSTLPSKESRRKGGLDYLKQVENETRNKSENEKNRNQEDNKVKDLNQEIE

Experiments:
GFP-LUZP1 (human) = biological target: T1, GFP-LUZP1 (human); experiment: co-IP; protein extracts of RPE-1 cells stably expressing GFP fusions; GFP antibody-conjugated Protein G Sepharose beads; endogenous partner detected by Western blot; lysis buffer 50 mM Hepes pH 8, 100 mM KCl, 2 mM EDTA, 10% glycerol, 0.1% NP-40, 1 mM DTT
[1] = biological target: GFP-EPLINβ (HEK293) (human); experiment: co-IP; extracts of HEK293 stable/inducible lines expressing FLAG-LUZP1 constructs and GFP-EPLINβ; GFP antibody-conjugated beads; FLAG fusions detected by Western blot

| binding (GFP-LUZP1 (human)) | binding [1] | Molecule |
| --- | --- | --- |
| binds |  | endogenous EPLINα (RPE-1) (human (endogenous in RPE-1)) |
| binds |  | endogenous EPLINβ (RPE-1) (human (endogenous in RPE-1)) |
|  | binds | B1 |
|  | binds | B2 |
|  | no binding | B3 |
